The values that follow come from patent US20240408169A1 (priority 2023, published 2024).

One series can be described thus: peptide synthesis. The following applies: coupling step, TFA salt (deprotected amines).
With “Tert-butyl ((S)-2-(((3S,6S,9S,Z)-3-((5-chloro-2-cyclopropoxypyridin-3-yl)methyl)-6-isobutyl-1,4-dimethyl-2,5,8-trioxo-1,4,7-triazacyclohexadec-11-en-9-yl)(methyl)amino)-1-cyclopropyl-2-oxoethyl)carbamate”, the step yield was 25%. For the substance “Tert-butyl((1S,4S,7S,10S)-4-allyl-10-(2-bromo-5-fluorobenzyl)-1-cyclopropyl-7-isobutyl-3,9,12-trimethyl-2,5,8,11-tetraoxo-3,6,9,12-tetraazaoctadec-17-en-1-yl)carbamate”, the step yield is 70% yield. Same read-out and setting: the value for “(2S,4R)—N—((S)-2-(((3S,6S,9S)-3-((5-chloro-2-methylpyridin-3-yl)methyl)-6-isobutyl-4-methyl-2,5,8-trioxo-1,4,7-triazacyclohexadecan-9-yl)(methyl)amino)-1-cyclopropyl-2-oxoethyl)-1-(3,3-difluoro-1-(trifluoromethyl)cyclobutane-1-carbonyl)-4-fluo” was 28%; that for “N—((S)-1-(((S)-1-(((3S,6S,9S)-3-(2,5-dichlorobenzyl)-6-isobutyl-4-methyl-2,5,8-trioxo-1,4,7-triazacyclohexadec-11-en-9-yl)amino)-1-oxopropan-2-yl)amino)-1-oxobutan-2-yl)-1-(trifluoromethyl)cyclopropane-1-carboxamide” was 14%.

Still in this series, the particulars now being: late stage modification step, TFA salt.
With “(S)-2-amino-N-((3S,6S,9S)-3-(5-chloro-2-(1-(methylsulfonyl)-1H-pyrazol-4-yl)benzyl)-6-isobutyl-4-methyl-2,5,8-trioxo-1,4,7-triazacyclohexadec-12-en-9-yl)-2-cyclopropyl-N-methylacetamide”, the step yield stood at 100.0%. Consider “(S)-2-amino-N-((3S,6S,9S)-3-(5-chloro-2-(5-methyl-1,3,4-oxadiazol-2-yl)benzyl)-6-isobutyl-4-methyl-2,5,8-trioxo-1,4,7-triazacyclohexadec-11-en-9-yl)-2-cyclopropyl-N-methylacetamide”, for which the step yield was 100%.

The series is the same for the next values; noted with them: late stage modification step, TFA salt (deprotected amines).
For the substance “tert-butyl ((S)-2-(((3S,6S,9S)-3-(5-chloro-2-(4,4,5,5-tetramethyl-1,3,2-dioxaborolan-2-yl)benzyl)-6-isobutyl-1,4-dimethyl-2,5,8-trioxo-1,4,7-triazacyclohexadecan-9-yl)(methyl)amino)-1-cyclopropyl-2-oxoethyl)carbamate”, the step yield is recorded as 1.51% yield. With “tert-butyl ((S)-2-(((3S,6S,9S)-3-((5-chloro-2-methylpyridin-3-yl)methyl)-6-isobutyl-4-methyl-2,5,8-trioxo-1,4,7-triazacyclohexadecan-9-yl)(methyl)amino)-1-cyclopropyl-2-oxoethyl)carbamate”, the step yield is 95%. As for “Tert-butyl ((S)-2-(((3S,6S,9S)-3-(2-(1-acetyl-1,2,3,6-tetrahydropyridin-4-yl)-5-fluorobenzyl)-6-isobutyl-1,4-dimethyl-2,5,8-trioxo-1,4,7-triazacyclohexadecan-9-yl)(methyl)amino)-1-cyclopropyl-2-oxoethyl)carbamate”, the step yield was 85%.

For the substance “Ethyl 4-(2-(((3S,6S,9S)-9-((S)-2-((tert-butoxycarbonyl)amino)-2-cyclopropyl-N-methylacetamido)-6-isobutyl-4-methyl-2,5,8-trioxo-1,4,7-triazacyclohexadec-11-en-3-yl)methyl)-4-chlorophenyl)-3,6-dihydropyridine-1 (2H)-carboxylat”, the step yield is on record as 51%.

Regarding “Tert-butyl ((S)-2-(((3S,6S,9S)-3-(2-(1-acetyl-1,2,3,6-tetrahydropyridin-4-yl)-5-fluorobenzyl)-6-isobutyl-1,4-dimethyl-2,5,8-trioxo-1,4,7-triazacyclohexadec-11-en-9-yl)(methyl)amino)-1-cyclopropyl-2-oxoethyl)carbamate”, the step yield stood at 63%. As to “((S)-2-(((3S,6S,9S)-3-(2-bromo-5-chlorobenzyl)-6-isobutyl-4-methyl-2,5,8-trioxo-1,4,7-triazacyclohexadecan-9-yl)(methyl)amino)-1-cyclopropyl-2-oxoethyl)carbamate”, the step yield was determined as 98%.

Regarding “tert-butyl ((S)-2-(((3S,6S,9S)-3-(5-chloro-2-(1-(methylsulfonyl)-1H-pyrazol-4-yl)benzyl)-6-isobutyl-4-methyl-2,5,8-trioxo-1,4,7-triazacyclohexadec-12-en-9-yl)(methyl)amino)-1-cyclopropyl-2-oxoethyl)carbamate”, the step yield is given as 79%. Consider “tert-butyl ((S)-2-(((3S,6S,9S)-3-(2-(1-acetyl-1,2,3,6-tetrahydropyridin-4-yl)-5-chlorobenzyl)-6-isobutyl-1,4-dimethyl-2,5,8-trioxo-1,4,7-triazacyclohexadecan-9-yl)(methyl)amino)-1-cyclopropyl-2-oxoethyl)carbamate”, for which the step yield is recorded as 86.7%. Regarding “tert-butyl ((S)-2-(((3S,6S,9S)-3-(5-chloro-2-(5-morpholinopyridin-2-yl)benzyl)-6-isobutyl-1,4-dimethyl-2,5,8-trioxo-1,4,7-triazacyclohexadecan-9-yl)(methyl)amino)-1-cyclopropyl-2-oxoethyl)carbamate”, the step yield was 46%. For “(2S,4R)—N—((S)-2-(((3S,6S,9S)-3-((5-chloro-1-methyl-1H-indol-7-yl)methyl)-6-isobutyl-1,4-dimethyl-2,5,8-trioxo-1,4,7-triazacyclohexadecan-9-yl)(methyl)amino)-1-cyclopropyl-2-oxoethyl)-1-(3,3-difluoro-1-(trifluoromethyl)cyclobutane-1-carbonyl)-4-fluoropyrrolidine-2-carboxamide”, the step yield is given as 9.21%.
